Measurements reported in US11441122B2, “Regulatory T cell epitopes” (EpiVax, Inc., priority 2017, dated 2022).
Where “and” joins values, the source holds several entries; their conditions need not be identical. Equal values may be shown once. At least one peptide structure holds a part that was inferred or is arguable (an end, a ring closure or a residue).

Tests used:
[1] = tested on: CD4+ effector memory T cells; format: cell-based, human
[2] = tested on: NOD-scid IL-2Rγ^null mice transplanted with human PBMC; assay: Xenogenic GvHD model, human PBMC transplanted into irradiated NSG mice; format: in vivo, mouse; details: 20 μg, days 0, 2, 4, 7, 10, 15, 20, 25; relative to negative controls and positive control IVIG

Structure (SMILES): CC[C@H](C)[C@H](NC(C)=O)C(=O)N[C@@H](CC(C)C)C(=O)N[C@H](C(=O)N[C@H](C(=O)N[C@@H](Cc1c[nH]cn1)C(=O)N[C@@H](Cc1ccccc1)C(=O)N[C@H](C(=O)NCC(=O)N[C@@H](Cc1c[nH]cn1)C(=O)N[C@@H](CO)C(=O)N[C@@H](Cc1ccccc1)C(=O)N[C@H](C(=O)N[C@@H](Cc1ccc(O)cc1)C(=O)NCC(=O)N[C@@H](CCCCN)C(N)=O)[C@@H](C)CC)[C@@H](C)O)[C@@H](C)CC)[C@@H](C)O [SEQ ID NO: 1]
- CD4+ T cell activation and proliferation of Teff responding to TT [1]: inhibited CD4+ T cell activation and proliferation of Teff responding to TT in a concentration-dependent manner
- CD4+ T cell activation reduced by [1]: 80% and 90%
- activated (CD25 high) proliferating (CFSE low) CD4 T cells stimulated by Tetanus Toxoid [1]: actively suppressed
- activated effector CD4+ T cells (CD4+/CD25-high/FoxP3-intermediate) reacting to Tetanus Toxoid [1]: strongly suppressed
- proliferation of CD4- cell population [1]: suppressed proliferation
- proliferation of total CD4+ T cells (CFSE low) [1]: strongly suppressed
- survival (Kaplan-Meier) [2]: extended survival
